Measurements from patent US4946835A (priority 1988, dated 1990).
For at least one compound, name, drawing or mass did not settle the structure.

Key:
Cryptococcus neoformans = test: agar dilution assay (MIC) against expanded panel of 84 Cryptococcus neoformans isolates; format: cell-based; conditions: 84 isolates
Experimental: Such activity may be illustrated with test results against Cryptococcus neoformans employing yeast nitrogen base dextrose agar medium. In carrying out the assay, Compound I was solubilized in 10 percent dimethyl sulfoxide (DMSO) supplemented with one drop of Tween 20. Twofold dilutions were made with sterile distilled water/10 percent DMSO to obtain final drug concentrations in the agar dilution assay plates ranging from 128 to 0.06 μg/ml against two strains of Cryptococcus neoformans and subsequently against an expanded panel of 84 Cryptococcus strains at concentrations ranging from 0.008 to 16.0 μg/ml.
Nystatin or amphotericin B was used as a positive control. For the assay, nystatin was solubilized in 10 percent dimethylformamide and diluted in sterile distilled water; amphotericin B was solubilized by expressing water directly into a lyophilized cake and shaking until the colloidal solution was clear and then diluted in sterile distilled water. The final drug concentrations ranged from 0.063 to 128 μg/ml.

filamentous fungi = test: activity against filamentous fungi (statement); format: cell-based

Compound: COc1ccc(CC2NC(=O)C=CCC(C(C)C3OC3c3ccccc3)OC(=O)C(CC(C)C)OC(=O)C(C)CNC2=O)cc1Cl (stereo not drawn) [Compound I, 10-[(3-chloro 4methoxyphenyl)methyl]-6-methyl-3-(2-methylpropyl)-16-[1-(3-phenyloxiranyl)ethyl]-1,4-dioxa-8,11-diazacyclohexadec-13-ene-2,5,9,12-tetrone]
- Range (MIC) (Cryptococcus neoformans): ≤0.008->16.0
- effectiveness against listed fungi (filamentous fungi; Aspergillus species (niger, flavus, fumigatus), Alternaria solani, Penicillium species, Cochliobolus miyabeanus, Phoma species, Botrytis allii, Ceratocystis ulmi, Fusarium oxysporum): especially effective
- activity against filamentous fungi (filamentous fungi; filamentous fungi, broadly): active broadly against filamentous fungi
